# Part of at least one peptide drawing is inferred or uncertain, most often the ends.
# Tests used:
# vaginal mucosa = assay: Histological analysis of vaginal biopsies, 7 week daily intravaginal oxytocin gel vs placebo; format: in vivo, human; conditions: for reduction of the scores of vaginal atrophy, histological analysis of vaginal biopsies: difference between 1 and 7 weeks of treatment
# [1] = tested on: personality inventory items; assay: Swedish Scales of Personality inventory, oxytocin vs placebo treated controls; format: in vivo, human; conditions: women receiving oxytocin vs placebo gel
# [2] = tested on: endogenous oxytocin production; conditions: intravenous administration, intrapartum (Jonas et al. 2009); cited from earlier work
smiles,measurement,setting,value
"CC[C@H](C)[C@@H]1NC(=O)[C@H](Cc2ccc(O)cc2)NC(=O)[C@@H](N)CSSC[C@@H](C(=O)N2CCC[C@H]2C(=O)N[C@@H](CC(C)C)C(=O)NCC(N)=O)NC(=O)[C@H](CC(N)=O)NC(=O)[C@H](CCC(N)=O)NC1=O [oxytocin, Cys-Tyr-Ile-Gln-Asn-Cys-Pro-Leu-Gly-NH2]","reduction of the scores of vaginal atrophy, histological analysis of vaginal biopsies",vaginal mucosa; 100 IU intravaginal,statistically significant
same,"reduction of the scores of vaginal atrophy, histological analysis of vaginal biopsies",vaginal mucosa; 400 IU intravaginal,statistically significant
same,vaginal mucosa by histological investigation,"vaginal mucosa; after 7 weeks, vs placebo group",more mature and thicker
same,overall outcome of personality inventories,[1],experienced more wellbeing and less anxiety and felt more self-secure and energetic
same,effect on the endogenous oxytocin production,[2],inhibiting effect on the endogenous oxytocin production

# — patent US20170232059A1, “COMPOSITION COMPRISING OXYTOCIN” (PEP-TONIC MEDICAL AB, priority 2012, published 2017)
